In test [1] the target is γ-tubulin complex protein 2 (GCP2) (human (endogenous in HEK 293FT)) (UniProt Q9BSJ2). Kind of test: co-IP; 1% NP-40 extracts of transfected HEK 293FT cells (48 h after transfection); precipitated with monoclonal antibody GCP2-01 to GCP2 on protein A beads; blots probed for FLAG and γ-tubulin.
The target in test [2] is γ-tubulin complex protein 4 (GCP4) (human (endogenous in HEK 293FT)) (UniProt Q9UGJ1). Kind of test: co-IP; unpublished data (T. Sulimenko): precipitation with antibody to GCP4.
Test [3] deals with FLAG-tagged mouse γ-tubulin 2 (mouse) (UniProt Q8VCK3). Kind of test: co-IP; 1% NP-40 extracts of transfected HEK 293FT cells (48 h after transfection); precipitated with rabbit anti-FLAG antibody on protein A beads; blots probed for GCP2 and GCP4.
Test [4] concerns the target FLAG-tagged mouse γ-tubulin 1 (mouse) (UniProt P83887). The test is described as above.
In test [5] the target is FLAG-tagged human γ-tubulin 2 (M413V variant) (human) (UniProt Q9NRH3). Described as above.
Test [6] has as its target FLAG-tagged mouse Fyn kinase (mouse) (UniProt P39688). The description is as above.

By UniProt entry, the sequences of proteins in these tests, tags left out. Where a name states a change or a piece, a line headed by the entry shows the natural chain unless it says otherwise.
UniProt Q9BSJ2: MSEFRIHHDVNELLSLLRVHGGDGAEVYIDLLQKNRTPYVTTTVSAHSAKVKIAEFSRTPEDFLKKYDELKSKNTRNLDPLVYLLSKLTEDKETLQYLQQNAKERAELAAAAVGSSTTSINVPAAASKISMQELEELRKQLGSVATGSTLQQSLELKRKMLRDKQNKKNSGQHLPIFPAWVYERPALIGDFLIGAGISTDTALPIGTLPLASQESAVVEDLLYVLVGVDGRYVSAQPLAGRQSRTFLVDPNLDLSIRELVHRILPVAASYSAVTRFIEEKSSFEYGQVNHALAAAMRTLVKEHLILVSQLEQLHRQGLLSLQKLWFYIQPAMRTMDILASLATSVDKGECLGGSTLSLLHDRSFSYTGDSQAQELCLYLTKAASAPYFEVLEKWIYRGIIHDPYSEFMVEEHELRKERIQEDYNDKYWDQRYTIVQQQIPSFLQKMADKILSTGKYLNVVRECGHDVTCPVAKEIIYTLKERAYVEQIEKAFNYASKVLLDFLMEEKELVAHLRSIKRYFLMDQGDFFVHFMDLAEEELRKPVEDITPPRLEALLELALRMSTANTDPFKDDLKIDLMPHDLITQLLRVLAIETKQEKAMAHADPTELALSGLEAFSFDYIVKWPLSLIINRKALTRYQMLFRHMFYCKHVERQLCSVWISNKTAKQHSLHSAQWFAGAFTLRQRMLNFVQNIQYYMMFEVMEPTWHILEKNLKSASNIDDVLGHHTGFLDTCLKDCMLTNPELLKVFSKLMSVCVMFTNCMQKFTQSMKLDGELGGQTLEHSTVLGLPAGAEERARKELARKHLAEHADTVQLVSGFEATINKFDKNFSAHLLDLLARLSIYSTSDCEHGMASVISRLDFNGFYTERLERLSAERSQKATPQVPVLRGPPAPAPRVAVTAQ
UniProt Q9UGJ1: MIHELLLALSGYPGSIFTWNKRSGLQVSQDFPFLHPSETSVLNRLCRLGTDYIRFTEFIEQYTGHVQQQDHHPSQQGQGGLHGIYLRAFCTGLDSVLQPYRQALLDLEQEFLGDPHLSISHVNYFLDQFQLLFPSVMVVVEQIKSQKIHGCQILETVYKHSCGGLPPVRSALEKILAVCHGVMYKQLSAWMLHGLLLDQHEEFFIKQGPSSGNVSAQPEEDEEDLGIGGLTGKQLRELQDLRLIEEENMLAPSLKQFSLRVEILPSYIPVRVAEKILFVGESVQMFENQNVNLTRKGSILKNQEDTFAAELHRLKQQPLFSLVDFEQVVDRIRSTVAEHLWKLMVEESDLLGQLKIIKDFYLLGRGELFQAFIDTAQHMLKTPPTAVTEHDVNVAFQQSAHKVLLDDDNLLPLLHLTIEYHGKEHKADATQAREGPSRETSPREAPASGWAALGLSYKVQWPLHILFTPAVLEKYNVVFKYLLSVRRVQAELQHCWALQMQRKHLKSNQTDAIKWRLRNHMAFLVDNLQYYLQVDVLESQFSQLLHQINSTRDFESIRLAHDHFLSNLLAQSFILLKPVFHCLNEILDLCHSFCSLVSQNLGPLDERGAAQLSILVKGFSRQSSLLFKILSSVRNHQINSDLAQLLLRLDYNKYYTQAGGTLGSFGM
UniProt Q8VCK3: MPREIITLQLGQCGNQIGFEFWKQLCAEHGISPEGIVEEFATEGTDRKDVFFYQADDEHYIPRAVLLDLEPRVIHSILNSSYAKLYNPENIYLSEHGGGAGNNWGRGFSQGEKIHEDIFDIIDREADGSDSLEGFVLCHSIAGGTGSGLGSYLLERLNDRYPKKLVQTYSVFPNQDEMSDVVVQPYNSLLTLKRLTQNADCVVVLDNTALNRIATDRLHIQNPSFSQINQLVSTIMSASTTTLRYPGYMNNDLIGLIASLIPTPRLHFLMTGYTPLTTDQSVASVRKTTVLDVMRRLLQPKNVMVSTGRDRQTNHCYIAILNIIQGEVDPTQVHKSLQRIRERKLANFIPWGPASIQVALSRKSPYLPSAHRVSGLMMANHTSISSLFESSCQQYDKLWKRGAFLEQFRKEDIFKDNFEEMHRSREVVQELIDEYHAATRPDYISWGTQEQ
UniProt P83887: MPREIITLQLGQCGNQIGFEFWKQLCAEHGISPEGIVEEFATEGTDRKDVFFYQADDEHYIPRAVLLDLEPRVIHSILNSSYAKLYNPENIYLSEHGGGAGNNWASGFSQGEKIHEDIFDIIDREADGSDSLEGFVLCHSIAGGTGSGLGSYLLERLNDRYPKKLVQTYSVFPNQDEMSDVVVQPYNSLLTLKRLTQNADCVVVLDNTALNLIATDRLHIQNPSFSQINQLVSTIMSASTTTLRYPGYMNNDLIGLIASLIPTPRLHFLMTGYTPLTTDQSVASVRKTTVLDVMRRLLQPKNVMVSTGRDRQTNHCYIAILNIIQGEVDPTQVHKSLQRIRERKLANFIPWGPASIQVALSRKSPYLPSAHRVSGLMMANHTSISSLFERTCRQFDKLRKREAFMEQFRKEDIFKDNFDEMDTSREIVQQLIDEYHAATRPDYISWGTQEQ
UniProt Q9NRH3: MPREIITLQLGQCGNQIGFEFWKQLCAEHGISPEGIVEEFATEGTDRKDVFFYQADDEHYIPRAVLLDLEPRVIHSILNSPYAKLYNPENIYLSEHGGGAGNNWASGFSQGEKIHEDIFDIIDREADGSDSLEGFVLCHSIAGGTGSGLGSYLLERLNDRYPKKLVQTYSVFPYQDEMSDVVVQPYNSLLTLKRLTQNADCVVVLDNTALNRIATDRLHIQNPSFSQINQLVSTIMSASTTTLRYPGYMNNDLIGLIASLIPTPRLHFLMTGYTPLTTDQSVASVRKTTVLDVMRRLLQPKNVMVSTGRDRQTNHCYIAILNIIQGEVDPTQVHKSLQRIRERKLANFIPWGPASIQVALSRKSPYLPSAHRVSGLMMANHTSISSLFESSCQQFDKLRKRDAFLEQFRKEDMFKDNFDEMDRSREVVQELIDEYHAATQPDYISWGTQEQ
UniProt P39688: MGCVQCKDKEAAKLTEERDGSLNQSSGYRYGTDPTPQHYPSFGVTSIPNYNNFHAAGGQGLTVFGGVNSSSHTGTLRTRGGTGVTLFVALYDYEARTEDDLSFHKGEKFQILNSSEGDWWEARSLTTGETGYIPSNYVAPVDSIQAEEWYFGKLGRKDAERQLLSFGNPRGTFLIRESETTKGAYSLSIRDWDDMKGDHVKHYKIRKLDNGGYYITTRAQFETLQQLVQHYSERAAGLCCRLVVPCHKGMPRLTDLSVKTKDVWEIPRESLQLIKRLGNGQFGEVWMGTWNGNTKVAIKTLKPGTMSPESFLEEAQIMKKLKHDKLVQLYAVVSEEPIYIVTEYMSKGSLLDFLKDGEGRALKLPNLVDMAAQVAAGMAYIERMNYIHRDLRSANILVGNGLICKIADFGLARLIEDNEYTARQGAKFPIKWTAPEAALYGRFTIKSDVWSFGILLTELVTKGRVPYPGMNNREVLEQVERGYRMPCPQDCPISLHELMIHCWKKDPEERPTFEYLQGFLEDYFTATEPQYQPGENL

Results are given in words; binding and its absence hold for the method and conditions named. Binding seen in cells or lysates may run through a third protein. Some binding calls cover weakened binding; strength is not graded here.

On to “FLAG-tagged mouse γ-tubulin 2 (from UniProt Q8VCK3 1-451)”, for which the binding result in test [1] and in test [2] was “binds” in each case.

For “γ-tubulin complex protein 2 (GCP2) (from UniProt Q9BSJ2 1-902)”, the binding entry in test [3] is given as “binds”; in test [4] it was “binds”; in test [5] it was “binds”; in test [6], “no binding”.

As for “FLAG-tagged human γ-tubulin 2 (M413V variant) (from UniProt Q9NRH3 1-451)”, the binding result in test [1] and in test [2] was “binds” throughout.

As for “γ-tubulin complex protein 4 (GCP4) (from UniProt Q9UGJ1 1-667)”, the binding entry in test [3] is recorded as “binds”; in test [4], “binds”; in test [5] it was “binds”; in test [6] it was “no binding”.

The values above are taken from article PMC3250491.
